Test results taken from publication PMC12724330.

Amino acid sequences for entries named in this document (tags omitted).
UniProt Q13111: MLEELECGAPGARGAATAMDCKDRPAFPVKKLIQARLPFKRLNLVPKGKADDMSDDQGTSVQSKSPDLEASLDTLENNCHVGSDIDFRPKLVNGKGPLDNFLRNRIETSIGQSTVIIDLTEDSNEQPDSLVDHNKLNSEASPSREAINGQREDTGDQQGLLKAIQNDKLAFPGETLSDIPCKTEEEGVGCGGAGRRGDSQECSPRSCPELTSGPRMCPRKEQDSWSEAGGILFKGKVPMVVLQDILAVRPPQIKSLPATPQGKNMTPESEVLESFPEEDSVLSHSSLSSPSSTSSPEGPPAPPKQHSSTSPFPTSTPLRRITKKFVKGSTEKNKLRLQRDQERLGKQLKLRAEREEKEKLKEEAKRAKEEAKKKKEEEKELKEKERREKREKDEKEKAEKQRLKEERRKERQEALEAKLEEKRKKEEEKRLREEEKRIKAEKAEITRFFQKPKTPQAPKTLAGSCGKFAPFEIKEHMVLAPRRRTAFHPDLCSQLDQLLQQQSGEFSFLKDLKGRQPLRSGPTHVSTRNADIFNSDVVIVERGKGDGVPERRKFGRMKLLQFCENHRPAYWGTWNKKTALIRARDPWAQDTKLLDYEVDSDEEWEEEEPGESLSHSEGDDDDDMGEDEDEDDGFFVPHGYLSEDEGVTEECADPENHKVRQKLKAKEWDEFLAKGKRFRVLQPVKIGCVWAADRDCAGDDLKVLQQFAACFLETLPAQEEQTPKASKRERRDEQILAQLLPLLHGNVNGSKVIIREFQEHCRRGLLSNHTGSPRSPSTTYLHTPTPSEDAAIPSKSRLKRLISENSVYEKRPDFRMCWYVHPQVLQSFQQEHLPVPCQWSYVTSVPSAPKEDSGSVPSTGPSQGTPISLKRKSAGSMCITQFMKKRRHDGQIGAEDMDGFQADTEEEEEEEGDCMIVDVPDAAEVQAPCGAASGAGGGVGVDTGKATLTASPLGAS

Target: Chromatin assembly factor 1 subunit A (CHAF1A) (human (endogenous in J-Lat 10.6)) (UniProt Q13111)
Test: affinity purification with mass spectrometry; J-Lat 10.6 cells, TNF-α activation; lysates immunoprecipitated with anti-CHAF1A antibody, IgG antibody as control; proteomic profiling of endogenous CHAF1A complexes

binding: binds
B1: O-GlcNAc transferase (OGT) (enzyme, UniProt O15294 1-1046)
chain: MASSVGNVADSTEPTKRMLSFQGLAELAHREYQAGDFEAAERHCMQLWRQEPDNTGVLLLLSSIHFQCRRLDRSAHFSTLAIKQNPLLAEAYSNLGNVYKERGQLQEAIEHYRHALRLKPDFIDGYINLAAALVAAGDMEGAVQAYVSALQYNPDLYCVRSDLGNLLKALGRLEEAKACYLKAIETQPNFAVAWSNLGCVFNAQGEIWLAIHHFEKAVTLDPNFLDAYINLGNVLKEARIFDRAVAAYLRALSLSPNHAVVHGNLACVYYEQGLIDLAIDTYRRAIELQPHFPDAYCNLANALKEKGSVAEAEDCYNTALRLCPTHADSLNNLANIKREQGNIEEAVRLYRKALEVFPEFAAAHSNLASVLQQQGKLQEALMHYKEAIRISPTFADAYSNMGNTLKEMQDVQGALQCYTRAIQINPAFADAHSNLASIHKDSGNIPEAIASYRTALKLKPDFPDAYCNLAHCLQIVCDWTDYDERMKKLVSIVADQLEKNRLPSVHPHHSMLYPLSHGFRKAIAERHGNLCLDKINVLHKPPYEHPKDLKLSDGRLRVGYVSSDFGNHPTSHLMQSIPGMHNPDKFEVFCYALSPDDGTNFRVKVMAEANHFIDLSQIPCNGKAADRIHQDGIHILVNMNGYTKGARNELFALRPAPIQAMWLGYPGTSGALFMDYIITDQETSPAEVAEQYSEKLAYMPHTFFIGDHANMFPHLKKKAVIDFKSNGHIYDNRIVLNGIDLKAFLDSLPDVKIVKMKCPDGGDNADSSNTALNMPVIPMNTIAEAVIEMINRGQIQITINGFSISNGLATTQINNKAATGEEVPRTIIVTTRSQYGLPEDAIVYCNFNQLYKIDPSTLQMWANILKRVPNSVLWLLRFPAVGEPNIQQYAQNMGLPQNRIIFSPVAPKEEHVRRGQLADVCLDTPLCNGHTTGMDVLWAGTPMVTMPGETLASRVAASQLTCLGCLELIAKNRQEYEDIAVKLGTDLEYLKKVRGKVWKQRISSPLFNTKQYTMELERLYLQMWEHYAAGNKPDHMIKPVEVTESA

No constants are given. Whether binding was seen depends on the method and setting. Binding seen in cells or lysates may run through a third protein. A yes stands for co-enrichment or nearness to the bait. Other partners may have been found.
